From patent publication US20230181659A1, “PHAGE-MEDIATED DELIVERY OF GENES TO GUT MICROBIOME” (priority 2020, published 2023)
Some entries share one result that the patent states for a list of compounds.

Tested on: E. coli carrying pBluescript II
Test: Minimum inhibitory concentration (MIC) assay
Assay type: cell-based
Conditions: E. coli carrying pBluescript II (bla)

CC1(C)S[C@@H]2[C@H](NC(=O)[C@H](N)c3ccccc3)C(=O)N2[C@H]1C(=O)O [ampicillin]
in vitro resistance concentration conferred by pBluescript II: exceeding 1 mg/ml

CC1(C)S[C@@H]2[C@H](NC(=O)C(C(=O)O)c3ccccc3)C(=O)N2[C@H]1C(=O)O (some centres unmarked) [carbenicillin]
in vitro resistance concentration conferred by pBluescript II: exceeding 1 mg/ml
